According to the supplement of paper PMC5407854, “Inhibitor of ppGalNAc-T3-mediated O-glycosylation blocks cancer cell invasiveness and lowers FGF23 levels” (eLife, 2017):
This is one part of the list. Most values lie at the level of the controls, where differences are scatter.

What was measured:
[1] = tested on: ppGalNAc-T3 sensor; experiment: T3 sensor activation Q score (MG/GFP ratio z-score vs DMSO controls) (SD units); higher = more sensor activation (inhibition of ppGalNAc-T3 glycosylation); conditions: HEK293 sensor cells; 10 µM; 6 h
Procedure: (§1)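 Cells were treated with compound at 10 uM for 6 h, then MG/GFP ratio was read by flow cytometry (10,000 cells per well, duplicate wells). Q = (R - R_neg)/SD_neg relative to DMSO vehicle controls; the signal rises when the glycosyltransferase is inhibited.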

[2] = tested on: ppGalNAc-T2 sensor; experiment: T2 sensor activation Q score (MG/GFP ratio z-score vs DMSO controls) (SD units); higher = more sensor activation (inhibition of ppGalNAc-T2 glycosylation); conditions: HEK293 sensor cells; 10 µM; 6 h
Procedure: as §1

SMILES | T3 sensor activation Q score [1] | T2 sensor activation Q score [2]
Cc1cccc(N2CCN(Cc3ccc4c(c3)OCO4)CC2)c1C | -0.4 | -0.65
Fc1ccc(N2CCN(Cc3ccc(Cl)cc3)CC2)cc1 | -0.53 | 0.59
CCc1ccc(CN2CCN(c3ccccc3F)CC2)cc1 | 0.665 | 1.33
CCOc1ccccc1N1CCN(Cc2ccccc2)CC1 | -0.1 | -0.29
CCN1CCN(Cc2cc(OC)c(OC)cc2[N+](=O)[O-])CC1 | -0.635 | -0.775
Cc1cccc(-n2c(/C=C/c3ccc([N+](=O)[O-])cc3)nc3ccccc3c2=O)c1 | 0.06 | 0.915
CCc1ccc(CN2CCN(CC)CC2)cc1 | 0.35 | 0.36
O=[N+]([O-])c1ccc(CN2CCN(c3ccccc3)CC2)cc1 | 0.75 | -0.43
O=[N+]([O-])c1ccccc1CN1CCN(c2ccc(F)cc2)CC1 | 0.12 | 0.17
CN1CCN(Cc2ccc([N+](=O)[O-])cc2)CC1 | 0.805 | 0.395
CN1CCN(Cc2cccc(Br)c2)CC1 | 0.475 | -0.9
COc1cccc(CN2CCN(c3ccc(Cl)cc3)CC2)c1OC | 0.275 | -0.225
Fc1ccc(CN2CCN(c3ccccc3F)CC2)cc1F | 1.85 | 0.32
O=[N+]([O-])c1ccc(N2CCN(Cc3ccc(O)cc3)CC2)cc1 | -0.23 | 0.28
Cc1ccc(CN2CCN(c3ccc(F)cc3)CC2)cc1 | -0.165 | -0.29
COc1ccccc1N1CCN(Cc2ccc(N(C)C)cc2)CC1 | -0.25 | 0.55
CN1CCN(Cc2ccco2)CC1 | 0.33 | 0.795
O=[N+]([O-])c1ccccc1CN1CCN(c2ccc(Cl)cc2)CC1 | -0.135 | -0.68
CCN1CCN(Cc2c(F)cccc2F)CC1 | 0.465 | -0.295
O=[N+]([O-])c1ccc(N2CCN(Cc3cc(F)ccc3F)CC2)cc1 | 0.71 | -0.035
CCOc1ccccc1CN1CCN(c2ccc(Cl)cc2)CC1 | 0.28 | -0.245
COc1ccccc1CN1CCN(c2cccc(C)c2C)CC1 | 0.27 | -0.15

Complete entries, quoted from the list. Values in the order: T3 sensor activation Q score [1]	T2 sensor activation Q score [2]
Cc1ccc(CN2CCN(c3ccc(F)cc3)CC2)cc1 in the list: -0.165	-0.29
O=[N+]([O-])c1ccc(N2CCN(Cc3ccc(O)cc3)CC2)cc1 in the list: -0.23	0.28

Additional records:

SMILES | T3 sensor activation Q score [1] | T2 sensor activation Q score [2]
COc1ccccc1CN1CCN(c2ccccc2Cl)CC1 | 1.25 | 0.69
CCC1CN(C)CCC1(O)c1ccccc1 (stereo not drawn) | 0.195 | -0.905
CC(C)N1CCN(Cc2ccccc2Cl)CC1 | -0.09 | -0.105
Fc1ccccc1N1CCN(Cc2ccccc2Cl)CC1 | 0.295 | -0.4
OCCN1CCN(Cc2ccccc2F)CC1 | 0.705 | -0.795
Cc1cccc(CN2CCN(c3ccccc3C)CC2)c1 | 0.435 | 0.87
O=[N+]([O-])c1ccccc1CN1CCN(c2ccccc2)CC1 | -0.525 | 0.06
Cc1cccc(N2CCN(Cc3ccccc3)CC2)c1C | 1.1 | 0.06
Fc1ccc(CN2CCN(c3ccccc3)CC2)cc1 | -0.38 | -0.89
CCOc1cc(CN2CCN(CC)CC2)ccc1O | 0.57 | -0.11
CN1CCN(Cc2ccccc2[N+](=O)[O-])CC1 | 0.035 | 0.67
c1ccc2c(CCNC3C4CC5CC(C4)CC3C5)c[nH]c2c1 (stereo not drawn) | 1.35 | -0.255
CCN1CCN(Cc2ccc(OC)c(OC)c2)CC1 | 0.395 | 0.34
Cc1ccccc1CN1CCN(Cc2ccc3c(c2)OCO3)CC1 | -0.49 | -0.75
COc1ccc(CC(N)=O)cc1OC | -0.825 | 0.405
COc1ccc(CN2CCN(c3ccc(Cl)cc3)CC2)cc1OC | 0.17 | -0.22
O=[N+]([O-])c1ccc(O)c(CN2CCN(c3ccccc3)CC2)c1 | -0.36 | -0.905
COc1ccc(CN2CCN(C)CC2)cc1 | 0.395 | -0.03
COc1ccc(N2CCN(Cc3cccc(F)c3)CC2)cc1 | – | 0.36
CCOc1ccccc1CN1CCN(C)CC1 | – | -0.225
COc1cccc(CN2CCN(c3ccc(F)cc3)CC2)c1 | – | -0.055
